Positions count from the first letter of the chain named. No constants are given. Whether binding was seen depends on the method and setting. Some entries that bind do so weakly or less than the wild type. Each block holds one binder with its values, some of them ahead of it.
Key:
[1] = target: recombinant human HGF (hepatocyte growth factor) (human) (UniProt P14210); experiment: crude E. coli extract receptor competition ELISA (biotinylated HGF, c-Met-Fc on plate)
[2] = target: recombinant human HGF (hepatocyte growth factor) (human) (UniProt P14210); experiment: receptor competition ELISA: DARPin premixed with human HGF, binding of HGF to coated c-Met (Fc chimera) detected; the blocked partner is c-Met
[3] = target: recombinant human HGF (hepatocyte growth factor) (human) (UniProt P14210); experiment: competition SPR, human HGF immobilized, 100 nM DARPin
[4] = target: recombinant human HGF (hepatocyte growth factor) (human) (UniProt P14210); experiment: SPR, human HGF immobilized, 100 nM DARPin #51 injected for 120 s as the first DARPin
[5] = target: recombinant human HGF (hepatocyte growth factor) (human) (UniProt P14210); experiment: SPR (ProteOn), human HGF immobilized on the chip, DARPin injected for 120 s, then buffer flow

Chains of the proteins cited; added tags and fusions are not shown. Residues count along the entry.
UniProt P14210, residues 32-728: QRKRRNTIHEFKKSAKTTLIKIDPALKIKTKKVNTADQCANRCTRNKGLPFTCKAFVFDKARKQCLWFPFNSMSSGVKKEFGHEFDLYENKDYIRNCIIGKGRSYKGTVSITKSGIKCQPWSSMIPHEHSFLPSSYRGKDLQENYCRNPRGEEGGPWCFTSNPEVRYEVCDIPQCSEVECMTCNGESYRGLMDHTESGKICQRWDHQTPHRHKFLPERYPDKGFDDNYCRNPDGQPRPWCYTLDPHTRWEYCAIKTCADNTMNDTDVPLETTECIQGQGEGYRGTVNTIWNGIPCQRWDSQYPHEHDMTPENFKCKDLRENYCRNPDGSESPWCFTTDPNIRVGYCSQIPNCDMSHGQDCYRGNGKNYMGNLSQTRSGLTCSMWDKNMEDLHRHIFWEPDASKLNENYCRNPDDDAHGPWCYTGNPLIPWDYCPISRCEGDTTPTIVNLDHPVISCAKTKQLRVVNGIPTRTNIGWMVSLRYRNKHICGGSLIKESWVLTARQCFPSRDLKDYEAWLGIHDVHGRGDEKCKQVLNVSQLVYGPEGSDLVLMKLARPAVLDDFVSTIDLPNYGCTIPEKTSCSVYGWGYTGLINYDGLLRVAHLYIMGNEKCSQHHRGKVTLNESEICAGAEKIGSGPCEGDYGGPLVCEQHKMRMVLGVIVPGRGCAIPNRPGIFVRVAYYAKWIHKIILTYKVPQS

binding [1]: binds
B1: DARPin #54 (designed binder)
chain: MRGSHHHHHHGSDLGKKLLEAARAGQDDEVRILMANGADVNANDSSGLTPLHLAAFYGHLEIVEVLLKYGADVNADDDWGHTPLHLAAHYGHLEIVEVLLKHGADVNAIDTRGLTPLHLAAIAGHLEIVEVLLKYGADVNAQDKFGKTAFDISIDNGNEDLAEILQKLN

binding [1]: binds
B2: DARPin #58 (designed binder)
chain: MRGSHHHHHHGSDLGKKLLEAARAGQDDEVRILMANGADVNAHDYVGLTPLHLAASIGHLEIVEVLLKYGADVNASDYNGFTPLYLAANNGHLEIVEVLLKNGADVNATDSFGYTPLHLAAHYGHLEIVEVLLKNGADVNAQDKFGKTAFDISIDNGNEDLAEILQKLN

binding [1]: binds
B3: DARPin #36 (designed binder)
chain: MRGSHHHHHHGSDLGKKLLEAARAGQDDEVRILMANGADVNANDDSGFTPLHLAAFYGHLELVEVLLKYGADVNATDRFGLTPLHLAAHYGHLEIVEVLLKHGDDVNAQDKFGKTAFDISIDNGNEDLAEILQKLN

binding [1]: binds
B4: DARPin #38 (designed binder)
chain: B3 chain with N43T, D45A, S46N, L62I, T76Y, R78N, H89S, H102N, D104A, N107Y

binding [1]: binds
B5: DARPin #47 (designed binder)
chain: MRGSHHHHHHGSDLGKKLLEAARAGQDDEVRILMANGADVNAQDRWGDTPLHLAASAGHLKIVEVLLKYGADVNADDVFGDTPLHLAASLGHLEIVEVLLKYGADVNADDYAGNTPLHLAANTGHLEIVEVLLKHGADVNAQDKFGKTAFDISIDNGNEDLAEILQKLN

binding [1]: binds
B6: DARPin #49 (designed binder)
chain: B5 chain with H135Y

binding [1]: binds
B7: DARPin #48 (designed binder)
chain: MRGSHHHHHHGSDLGKKLLEAARAGQDDEVRILMANGADVNAKDRFGDTPLHLAADIGHLKIVEVLLKHGADVNAEDWFGNTPLHLAASMGHLEIVEVLLKYGADVNAMDDYGNTPLHLAANTGHLEIVEVLLKHGADVNAQDKFGKTAFDISIDNGNEDLAEILQKLN

binding [1]: binds
B8: DARPin #42 (designed binder)
chain: MRGSHHHHHHGSDLGKKLLEAARAGQDDEVRILMANGADVNAKYEDGLTPLHLAAFYGHLEIVEVLLKHGADVNATDAWGHTPLHLAAHYGHLEIVEVLLKYGADVNAIDTLGYTPLHLAANFGHLEIVEVLLKNGADVNAQDKFGKTAFDISIDNGNEDLAEILQKLN

binding [1]: binds
B9: DARPin #40 (designed binder)
chain: B8 chain with H89A, Y102N, I109H, T111N, L112V, Y114D, N122M, F123L

binding [1]: binds
B10: DARPin #39 (designed binder)
chain: B8 chain with H89S, Y90N, I109S, L112A, Y114I, N122H, F123N, L132V, N135H

binding [1]: binds | binding [2]: binds
B11: DARPin #43 (designed binder)
chain: B8 chain with H89Y, A108T, I109H, T111K, L112E, Y114M, P116A, N122L, F123T

binding [1]: binds
B12: DARPin #41 (designed binder)
chain: B8 chain with K68R, H89Y, Y90L, I109E, L112E, N122M, F123D, V129I, N135H

binding [1]: binds
B13: DARPin #37 (designed binder)
chain: MRGSHHHHHHGSDLGKKLLEAARAGQDDEVRILMANGADVNATDLTGFTPLHLAAYYGHLEIVEVLLKYGADVNADDRYGLTPLHLAANTGHLEIVEVLLKNGADVNASDSVGTTLLHLAAYIGHPEIVEVLLKYGADVNAQDKFGKTAFDISIDNGNEDLAEILQKLN

binding [1]: binds
B14: DARPin #60 (designed binder)
chain: MRGSHHHHHHGSDLGMKLLEAARAGQDDEVRILMANGADVNAHDTWGLTPLHLAAFHGHQEIVEVLLKHGADVNAQDFYGKTPLHLAALRGHLEIVEVLLKYGADVNAQDQFGKTAFDISIDNGNEDLAEILQKLN

binding [1]: binds
B15: DARPin #44 (designed binder)
chain: MRGSHHHHHHGSDLGKKLLEAARAGQDDEVRILMANGADVNTHDNFGDTPLHLAASIGHLEIVEVLLKHGADVNAFDSYGDTPLHLAASSGHLEIVEVLLKYGADVNALDYNGNTPLHLAANSGRLEIVEVLLKHGADVNAQDKFGKTAFDISIDNGNEDLAEILQKLN

binding [1]: binds
B16: DARPin #45 (designed binder)
chain: MRGSHHHHHHGSDLGKKLLEAARAGQDDEVRILMANGADVNAVDAWGDTPLHLAASIGHLEIVEVLLKNGADVNAADYYGDTPLHLAASAGHLEIVEVLLKYGADVNAQDDNGNTPLHLAANTGRLEIVEVLLKHGADVNAQDKFGKTAFDISIDNGNEDLAEILQKLN

binding [1]: binds
B17: DARPin #33 (designed binder)
chain: MRGSHHHHHHGSDLGKKLLEAARAGQDDEVRILMANGADVNAHDYSGFTPLHLAAYYGHLEIVEVLLKHGADVNAFDDWGHTPLHLAARYGHLEIVEVLLKYGADVNAEDTEGYTPLHLAAMDGHLEIVEVLLKNGADVNAQDKFGKTAFDISIDNGNEDLAEILQKLN

binding [1]: binds
B18: DARPin #34 (designed binder)
chain: B17 chain with H43I, N135Y

binding [1]: binds
B19: DARPin #35 (designed binder)
chain: B17 chain with H43S, Y45M, Y56F, F76E, D78Y, N135H

binding [1]: binds
B20: DARPin #53 (designed binder)
chain: MRGSHHHHHHGSDLGKKLLEAARAGQDDEVRILMANGADVNANDFLGLTPLHLAASTGHLEIVEVLLKYGADVNAIDAYGHTPLHLAANNGHLEIVEVLLKYGADVNAIDHFGYTPLHLAAMFGHLEIVEVLLKNGADVNAQDKFGKTAFDISIDNGNEDLAEILQKLN

binding [1]: binds
B21: DARPin #56 (designed binder)
chain: B20 chain

binding [1]: binds
B22: DARPin #61 (designed binder)
chain: MRGSHHHHHHGSDLGKKLLEAARAGQDDEVRILMANGADVNAEDYLGHTPLHLAASTGHLEIVEVLLKYGADVNAKDRNGLTPLYLAANNGHLEIVEDLLKYGADVNADDDNGTTPLHLAAIFGHLEIVEVLLKYGADVNAQDKFGKTAFDISIDNGNEDLAEILQKLN

binding [1]: binds
B23: DARPin #46 (designed binder)
chain: MRGSHHHHHHGSDLGKKLLEAARAGQDDEVRILMANGADVNAIDTWGNTPLHLAADYGHLEIVEVLLKNGADVNALDWFGDTPLHLAASLGHLEIVEVLLKNGADVNAVDTYGNTPLHLAANTGRLEIVEVLLKYGADVNAQDKFGKTAFDISIDNGNEDLAEILQKLN

binding [1]: binds
B24: DARPin #55 (designed binder)
chain: MRGSHHHHHHGSDLGKKLLEAARAGQDDEVRILMANGADVNASDDTGLTPLHLAANRGHLEIVEVLLKHGADVNANDFAGMTPLHLAANVGHLEIVEVLLKYGADVNAHDDYGLTPLHLAANWRHLEIVEVLLKNGADVNAQDKFGKTAFDISIDNGNEDLAEILQKLN

binding [3]: binds | binding [1]: binds | binding [4]: binds | binding [5]: binds | binding [2]: binds
B25: DARPin #51 (designed binder)
chain: MRGSHHHHHHGSDLGKKLLEAARAGQDDEVRILLKAGADVNAKDRYGDTPLHLAADIGHLEIVEVLLKAGADVNAEDYFGNTPLHLAASYGHLEIVEVLLKAGADVNAKDDYGNTPLHLAANTGHLEIVEVLLKAGADVNAQDKSGKTPADLAADAGHEDIAEVLQKLN

binding [1]: binds
B26: DARPin #52 (designed binder)
chain: B25 chain with I57A, E61K, Y90A, Y112A, E127K

binding [1]: binds
B27: DARPin #50 (designed binder)
chain: B25 chain with L34M, K35A, A36N

binding [1]: binds
B28: DARPin #59 (designed binder)
chain: MRGSHHHHHHGSDLGKKLLEAARAGQDDEVRILMANGADVNADDSLGLTPLHLAAASGHLEIVEVLLKNGADVNAVDQNSFTPLYLAANNGHLEIVEVLLKNGADVNAFDWHGTTPLHLAAMFGHLEIVEVLLKNGADVNAQDKFGKTAFDISIDNGNEDLAEILQKLN
